Results on one compound are retold here after article PMC8915576 (Frontiers in Pain Research, 2021).

The test system of this experiment is MOPr-VACC inhibition in dorsal root ganglia (DRG) neurons. Description: cells. As to conditions: Mus musculus, DRG neuron, read-out: IC50, VACC inhibition. The experiment is classed as cell-based.

SMILES strings stand for the structures.

The term IC50 denotes the point on the concentration scale where inhibition reaches its midpoint. Take `CN1CC[C@]23c4c5ccc(O)c4O[C@H]2[C@@H](O)C=C[C@H]3[C@H]1C5` [Morphine, morphine]: the IC50 is 688 nM.
